Article PMC11662661
For at least one entry, the source does not settle the construct or the ends of the probe. At least one verdict was read from the data and is not stated in words by the source.

Tested on: Ml5 (Mesorhizobium loti)
Assay: EMSA
Settings: recombinant protein

| Sequence | binding result (5 pmol DNA, letters put together from the description) | binding result (preferred over NS) |
| --- | --- | --- |
| AATTTAGAATGAAGTTATATTCAATATAAAAGTAGAATTTTGAAAATCGCTAATTATGAT (double strand) [babR60] | binds |  |
| ATGAAGTTATATTCAATATAAAAGTAGAAT (double strand) [babR30] |  | binds |
